Source: PubChem BioAssay AID2685 (National Center for Advancing Translational Sciences (NCATS), 2010)
This is one part of the list. Shown are side measurements of this screen, not its main read-out; they come without a call. The list favours compounds with an active or inconclusive main result. Potencies come from curve fits of mixed quality, noted in brackets.

Assay: qHTS Assay for Lipid Storage Modulators in Drosophila S3 Cells;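 on cell number change: cells counted by Cell Tracker Red CMTPX staining in the red channel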
Conditions: BODIPY lipid droplet fluorescence, 18-24 h; for cell number change: measured here: cell count max response, cells fed with added oleic acid
Summary of the method: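 Drosophila S3 cells got compounds at several concentrations plus oleic acid (400 uM solution). Laser-scanning cytometry with 488 nm excitation read lipid droplets at 500-530 nm and cells at 575-640 nm. Percent activity was relative to 20 uM Triacsin C.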

[1] = measured here: cell number channel AC50, cells fed with added oleic acid
[2] = measured here: lipid fluorescence (Fed channel) AC50, cells fed with added oleic acid

SMILES	cell number change	AC50 [1]	AC50 [2]
OC12CCCCC1C(c1ccc3c(c1)OCO3)N(Cc1ccccc1F)CC2 (centres undefined)	-31.1%	20.6 µM [falling, single point]	
N#Cc1ccc(CN2CCN(CC(=O)NCCc3ccc(Cl)cc3Cl)CC2)cc1	-21.1%		5.62 µM [falling, single point]
Cc1ccccc1NC(=O)CCN1CCN(C/C=C/c2ccccc2)CC1	-4.35%		
Cc1ccc(NC(=O)CN(C)C(=O)c2cc(-c3ccco3)nc3ccccc23)cc1	66.7%	1.03 µM [rising, full curve, poor fit]	
COc1ccc2oc(C(=O)OC(C)C(=O)Nc3ccc(N4CCOCC4)cc3)c(C)c2c1 (centres undefined)			8.2 µM [falling, partial curve]
Cc1ccc(NC(=S)N2CCCC2)cc1Cl	-5.2%		
Cc1cc(NC(=O)C2CCN(S(=O)(=O)Cc3ccccc3)CC2)ccc1-n1cnnn1	-29%		11.6 µM [falling, partial curve, poor fit]
CCOC(=O)c1cn(CC(=O)Nc2cccc(Cl)c2C)nn1	10.3%		2.06 µM [rising, full curve]
CC(C)(C)NC(=O)/C(=C\c1ccco1)NC(=O)c1ccco1	35.1%	0.00461 µM [rising, full curve, poor fit]	
CC(C)C(=O)Nc1ccc(N2CCCC2)cc1			18.4 µM [rising, partial curve]
CC1CCN(C(=O)c2cc(Cl)ccc2NC(=O)c2ccco2)CC1	18.9%		
Cc1ccc(NC(=O)Cc2ccc(Cl)cc2)cc1S(=O)(=O)N1CCCCCC1	-5.28%	2.31 µM [rising, partial curve]	2.06 µM [rising, partial curve]
CN1CCCCC1=NCCCn1cnc2c1c(=O)n(C)c(=O)n2C	119%	20.6 µM [rising, single point]	29.1 µM [rising, single point]
Nc1cc(N)nc(SCC(=O)N2CCN(C(=O)c3ccco3)CC2)n1	37.3%	29.1 µM [rising, single point]	4.11 µM [falling, full curve]
COc1ccc(S(=O)(=O)N2CCN(C3CC4CCC3C4)CC2)cc1 (centres undefined)	-11.3%		6.51 µM [falling, single point]
CCC(=O)Nc1ccc2nc(C3CC3)n(Cc3ccccc3)c(=O)c2c1	20.6%		0.082 µM [rising, full curve, poor fit]
Cc1noc(/C=C/c2cccnc2)c1[N+](=O)[O-]	-36.9%	0.0731 µM [falling, full curve]	0.13 µM [falling, full curve, poor fit]
O=C(NCc1ccc2c(c1)OCO2)C(=O)NCC1OCCCN1S(=O)(=O)c1cc(F)ccc1F (centres undefined)	27.9%		29.1 µM [rising, single point]
CC(=O)Nc1sc(C)c(C)c1C(=O)OCC(=O)N(C)C1CCS(=O)(=O)C1 (centres undefined)	41.9%	0.92 µM [rising, full curve, poor fit]	29.1 µM [rising, single point]
CC(=O)NNC(=O)CC(=O)Nc1nc(C23CC4CC(CC(C4)C2)C3)cs1	-6.76%		18.4 µM [falling, partial curve, poor fit]

SMILES	cell number change	AC50 [1]	AC50 [2]
Cc1ccc(N(Cc2ccc(C(=O)Nc3ccccc3C(=O)NCc3ccco3)cc2)S(C)(=O)=O)cc1C	55.3%	20.6 µM [rising, single point]	
S=C(NCc1ccncc1)NC1CCCC1	4.75%	0.0731 µM [falling, full curve, poor fit]	
COc1cccc(N2CC(C(=O)Nc3nnc(SCC(=O)c4ccccc4)s3)CC2=O)c1 (centres undefined)	6.69%		0.411 µM [rising, full curve, poor fit]
O=C(c1ccc(N2CCCCC2)c([N+](=O)[O-])c1)N(Cc1ccccc1)c1ccccn1	-23.5%		4.11 µM [falling, partial curve]
CC(NC(=O)Nc1ccccc1Cl)c1ccc2c(c1)OCO2 (centres undefined)			0.58 µM [rising, single point]
CC(=O)Oc1ccc(Oc2ccc(-c3noc(C)n3)cc2)cc1		1.16 µM [falling, full curve, poor fit]	0.731 µM [falling, full curve]
O=C(Nc1cc(Cl)ccc1Cl)c1cc(-c2ccco2)on1	13.9%		0.13 µM [rising, partial curve, poor fit]
CCN(c1ccccc1C)S(=O)(=O)c1cc2c3c(c1)CCC(=O)N3CCC2	-20.5%	3.26 µM [falling, full curve, poor fit]	6.51 µM [falling, partial curve]
CCOC(=O)C1(CCCc2ccccc2)CCN(Cc2cnn(C)c2)CC1	15.4%		0.13 µM [rising, full curve, poor fit]
O=C1CCC(=O)N1c1nc2nc(-c3ccccc3)cc(=O)n2[nH]1	-2.7%		14.6 µM [falling, partial curve]
CCN1CCS/C1=C\C=C\C1=[N+](CC)CCS1	-69.9%		
COc1ccc(OC)c2sc(N3CCc4ccccc4C3)nc12	29.2%		
NC(=O)CN1CCOCCOCCN(CC(N)=O)CCOCC1	9.08%		
COc1cccc(-c2noc(C3CCCN(C(=O)CC(C)(C)C)C3)n2)c1 (centres undefined)	-8.08%		0.0731 µM [falling, full curve, poor fit]
COc1ccc(-n2c(SCC(=O)Nc3ccccc3OC)nc(O)c(Cc3ccccc3)c2=O)cc1	17.9%		29.1 µM [falling, single point]
CCOc1ccc(NC(=O)Cn2nc(-c3ccccc3Cl)n(CC)c2=S)cc1	-9.73%		
Cc1nc(-c2ccc(NS(C)(=O)=O)cc2)cs1	35.5%	29.1 µM [rising, single point]	
Cc1cc(NC(=O)CSc2cn(CCNC(=O)c3ccc(Cl)cc3)c3ccccc23)no1		1.3 µM [rising, full curve, poor fit]	1.46 µM [rising, full curve]
CN(CC(=O)Nc1ccc(F)c(F)c1F)C(=O)C1CCC1	-8%		
CC(C)CCN1C(=O)CCC1(C)C(=O)NC1CCCCCC1 (centres undefined)	-12.7%		16.4 µM [falling, single point]

SMILES	cell number change	AC50 [1]	AC50 [2]
CC(=O)c1cc2c(cc1NC(=O)Nc1cccc(Cl)c1)OCCO2		3.26 µM [rising, partial curve]	6.51 µM [rising, single point]
CC(=O)NC1C(Oc2ccc3c(C)cc(=O)oc3c2)OC(COC(C)=O)C(OC(C)=O)C1OC(C)=O (centres undefined)	-30.8%	23.1 µM [falling, single point]	
O=C(c1ccco1)c1cn(CC(=O)N2CCCc3ccccc32)c2ccccc12			6.51 µM [rising, single point]
CCOC(=O)C1=C(C)OC(N)=C(C#N)C1c1c(C)nn(-c2ccc(C)cc2)c1Cl (centres undefined)	14.9%		6.51 µM [rising, full curve]
CCN(CC)CCOc1ccc(/C(=C(\Cl)c2ccccc2)c2ccccc2)cc1	-5.2%		
COC(CN(C)C(=O)C1CCCN(S(=O)(=O)c2ccc3c(c2)oc(=O)n3C)C1)OC (centres undefined)	8.96%		
Cc1ccc(NC(=O)C2=CC=CN3CCS(=O)(=O)N=C23)cc1	7.19%		2.59 µM [falling, single point]
OCCN(CCO)CC(O)COc1ccc2c(c1)OCO2 (centres undefined)	-13.8%		
O=C(C1CCCN(S(=O)(=O)c2cc(Cl)ccc2Cl)C1)N1CCOCC1 (centres undefined)	-13.9%		29.1 µM [falling, single point]
CCN(CC(=O)NCCc1ccccc1)S(=O)(=O)c1ccc(C)cc1	20.7%		8.2 µM [rising, partial curve]
Cc1ccc(-c2nnn(CC(=O)N(CCO)C(C(=O)NC(C)(C)C)c3ccncc3)n2)cc1 (centres undefined)	2.46%		4.11 µM [falling, single point]
CCCCn1c(N)c(N(CCC(C)C)C(=O)c2cc(S(=O)(=O)N3CCOCC3)ccc2F)c(=O)[nH]c1=O	-2.77%		
O=[N+]([O-])c1ccc2c(c1)CNc1ccccc1O2	-34.8%	25.9 µM [falling, single point]	23.1 µM [falling, single point]
COc1cccc(-c2nn(-c3ccc(C)cc3)cc2C(=O)NCC(c2cccs2)N2CCOCC2)c1 (centres undefined)	25.6%	1.64 µM [rising, full curve, poor fit]	1.03 µM [rising, partial curve]
N#C/C(=C\c1cccnc1)C(=O)Nc1ccc(Cl)cc1	9.27%		29.1 µM [falling, single point]
NC(=O)c1ccc(NC(=O)COc2ccc([N+](=O)[O-])cc2Cl)cc1	80.9%		
CCC(C(=O)Nc1ccc(OC)c(Cl)c1)c1ccccc1 (centres undefined)	-51.4%	20.6 µM [falling, single point]	
CSCC[C@H](NC(=O)NCc1ccccc1F)C(=O)O	-32.5%	0.461 µM [falling, full curve, poor fit]	25.9 µM [falling, partial curve]
O=C(CSc1nnc(CNC(=O)c2cccs2)o1)c1ccc(Cl)cc1	45%	29.1 µM [rising, single point]	6.51 µM [falling, single point]
Cc1ccc(NC(=O)c2c(-c3ccccc3)noc2C)nc1	-59.1%	18.4 µM [falling, partial curve, poor fit]	1.64 µM [rising, partial curve, poor fit]

By substructure: the entries above with a furan ring, fused or not
SMILES	cell number change	AC50 [1]	AC50 [2]
Cc1ccc(NC(=O)CN(C)C(=O)c2cc(-c3ccco3)nc3ccccc23)cc1	66.7%	1.03 µM [rising, full curve, poor fit]	
COc1ccc2oc(C(=O)OC(C)C(=O)Nc3ccc(N4CCOCC4)cc3)c(C)c2c1 (centres undefined)			8.2 µM [falling, partial curve]
CC(C)(C)NC(=O)/C(=C\c1ccco1)NC(=O)c1ccco1	35.1%	0.00461 µM [rising, full curve, poor fit]	
CC1CCN(C(=O)c2cc(Cl)ccc2NC(=O)c2ccco2)CC1	18.9%		
Nc1cc(N)nc(SCC(=O)N2CCN(C(=O)c3ccco3)CC2)n1	37.3%	29.1 µM [rising, single point]	4.11 µM [falling, full curve]
Cc1ccc(N(Cc2ccc(C(=O)Nc3ccccc3C(=O)NCc3ccco3)cc2)S(C)(=O)=O)cc1C	55.3%	20.6 µM [rising, single point]	
O=C(Nc1cc(Cl)ccc1Cl)c1cc(-c2ccco2)on1	13.9%		0.13 µM [rising, partial curve, poor fit]
O=C(c1ccco1)c1cn(CC(=O)N2CCCc3ccccc32)c2ccccc12			6.51 µM [rising, single point]

Retrieved by structure from the list above (2):
SMILES	cell number change	AC50 [1]	AC50 [2]
CCOC(=O)C1=C(C)OC(N)=C(C#N)C1c1c(C)nn(-c2ccc(C)cc2)c1Cl (centres undefined)	14.9%		6.51 µM [rising, full curve]
COC(CN(C)C(=O)C1CCCN(S(=O)(=O)c2ccc3c(c2)oc(=O)n3C)C1)OC (centres undefined)	8.96%		
